PubChem BioAssay AID493246 – Drosophila RNAi Screening Center | 2011
In all, the deposit lists about 21,000 reagents; this is a random part of those that have a named target and a result. Over the whole deposit, 429 (2%) got an active call. 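Values are raw and not normalised between plates; calls rest on per-plate z-scores that were not deposited.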 A plus sign joins genes that one reagent is predicted to hit. The record does not give: the amount of reagent, the time to read-out.

- Purpose: 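Genes fly cells need to grow and stay alive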 (primary screen)
- System: Drosophila Kc and S2R+ cells
- Knock-down reagent: long dsRNA against Drosophila genes
- Measurement: 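Cell number per well after knock-down, printed as raw plate values; calls were based on per-plate z-scores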
- Reading the numbers: Kc cell number and S2R+ cell number: higher = more cells remaining
- Rule for the call: 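Active when the per-plate z-score of cell number is 3 or more in the direction of fewer cells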

Brd (Bearded) [DRSC09685] — Kc cell number, rep 1: 1.44e6; Kc cell number, rep 2: 1.46e6; S2R+ cell number, rep 1: 1.18e6; S2R+ cell number, rep 2: 1.26e6; call: inactive
ringer (ringmaker) [DRSC10455] — Kc cell number, rep 1: 1.44e6; Kc cell number, rep 2: 1.63e6; S2R+ cell number, rep 1: 1.33e6; S2R+ cell number, rep 2: 1.43e6; call: inactive
CG6454 [DRSC16044] — Kc cell number, rep 1: 1.55e6; Kc cell number, rep 2: 1.55e6; S2R+ cell number, rep 1: 1.17e6; S2R+ cell number, rep 2: 1.18e6; call: inactive
CG4520 [DRSC15590] — Kc cell number, rep 1: 1.32e6; Kc cell number, rep 2: 1.41e6; S2R+ cell number, rep 1: 1.16e6; S2R+ cell number, rep 2: 1.34e6; call: inactive
CG13564 [DRSC04201] — Kc cell number, rep 1: 1.53e6; Kc cell number, rep 2: 1.60e6; S2R+ cell number, rep 1: 1.22e6; S2R+ cell number, rep 2: 1.31e6; call: inactive
tzn (tenzing norgay) [DRSC11755] — Kc cell number, rep 1: 1.82e6; Kc cell number, rep 2: 1.89e6; S2R+ cell number, rep 1: 1.37e6; S2R+ cell number, rep 2: 1.45e6; call: inactive
Cwc25 [DRSC00545] — Kc cell number, rep 1: 1.64e6; Kc cell number, rep 2: 1.73e6; S2R+ cell number, rep 1: 1.04e6; S2R+ cell number, rep 2: 1.19e6; call: inactive
CG18268 + CG3014 [DRSC15319] — Kc cell number, rep 1: 1.43e6; Kc cell number, rep 2: 1.51e6; S2R+ cell number, rep 1: 1.23e6; S2R+ cell number, rep 2: 1.33e6; call: inactive
Trs23 (TRAPP subunit 23) [DRSC03190] — Kc cell number, rep 1: 1.68e6; Kc cell number, rep 2: 1.77e6; S2R+ cell number, rep 1: 1.32e6; S2R+ cell number, rep 2: 1.56e6; call: inactive
tinc (tincar) [DRSC14798] — Kc cell number, rep 1: 1.46e6; Kc cell number, rep 2: 1.44e6; S2R+ cell number, rep 1: 1.12e6; S2R+ cell number, rep 2: 1.20e6; call: inactive
tinc (tincar) [DRSC14799] — Kc cell number, rep 1: 1.46e6; Kc cell number, rep 2: 1.47e6; S2R+ cell number, rep 1: 1.11e6; S2R+ cell number, rep 2: 1.24e6; call: inactive
tinc (tincar) [DRSC16308] — Kc cell number, rep 1: 1.48e6; Kc cell number, rep 2: 1.46e6; S2R+ cell number, rep 1: 1.01e6; S2R+ cell number, rep 2: 1.08e6; call: inactive
tinc (tincar) [DRSC16309] — Kc cell number, rep 1: 1.35e6; Kc cell number, rep 2: 1.39e6; S2R+ cell number, rep 1: 1.02e6; S2R+ cell number, rep 2: 1.13e6; call: inactive
Su(dx) (Suppressor of deltex) [DRSC00791] — Kc cell number, rep 1: 1.34e6; Kc cell number, rep 2: 1.36e6; S2R+ cell number, rep 1: 8.89e5; S2R+ cell number, rep 2: 8.77e5; call: inactive

2 entries already listed, sorted by “Kc cell number, rep 2”, highest first.
ringer (ringmaker) [DRSC10455] — Kc cell number, rep 1: 1.44e6; Kc cell number, rep 2: 1.63e6; S2R+ cell number, rep 1: 1.33e6; S2R+ cell number, rep 2: 1.43e6; call: inactive
CG6454 [DRSC16044] — Kc cell number, rep 1: 1.55e6; Kc cell number, rep 2: 1.55e6; S2R+ cell number, rep 1: 1.17e6; S2R+ cell number, rep 2: 1.18e6; call: inactive

Further records:
CG16800 [DRSC02518] — Kc cell number, rep 1: 1.55e6; Kc cell number, rep 2: 1.58e6; S2R+ cell number, rep 1: 1.30e6; S2R+ cell number, rep 2: 1.45e6; call: inactive
PXo (P[[i]]-sensitive XPR1 orthologue) [DRSC09734] — Kc cell number, rep 1: 1.47e6; Kc cell number, rep 2: 1.51e6; S2R+ cell number, rep 1: 1.24e6; S2R+ cell number, rep 2: 1.17e6; call: inactive
CG8607 [DRSC11012] — Kc cell number, rep 1: 1.47e6; Kc cell number, rep 2: 1.35e6; S2R+ cell number, rep 1: 1.13e6; S2R+ cell number, rep 2: 1.22e6; call: inactive
CG5174 [DRSC06920] — Kc cell number, rep 1: 1.46e6; Kc cell number, rep 2: 1.51e6; S2R+ cell number, rep 1: 1.14e6; S2R+ cell number, rep 2: 1.17e6; call: inactive
Grx3 (Glutaredoxin 3) [DRSC02966] — Kc cell number, rep 1: 1.39e6; Kc cell number, rep 2: 1.44e6; S2R+ cell number, rep 1: 1.25e6; S2R+ cell number, rep 2: 1.38e6; call: inactive
Aplip1 (APPL-interacting protein 1) [DRSC07947] — Kc cell number, rep 1: 1.74e6; Kc cell number, rep 2: 1.73e6; S2R+ cell number, rep 1: 1.05e6; S2R+ cell number, rep 2: 1.27e6; call: inactive
Aplip1 (APPL-interacting protein 1) [DRSC08697] — Kc cell number, rep 1: 1.47e6; Kc cell number, rep 2: 1.29e6; S2R+ cell number, rep 1: 1.00e6; S2R+ cell number, rep 2: 1.24e6; call: inactive
